{"sequences": {"note": "The chains behind the UniProt entries cited, without tags or fusion partners.", "UniProt P05556": "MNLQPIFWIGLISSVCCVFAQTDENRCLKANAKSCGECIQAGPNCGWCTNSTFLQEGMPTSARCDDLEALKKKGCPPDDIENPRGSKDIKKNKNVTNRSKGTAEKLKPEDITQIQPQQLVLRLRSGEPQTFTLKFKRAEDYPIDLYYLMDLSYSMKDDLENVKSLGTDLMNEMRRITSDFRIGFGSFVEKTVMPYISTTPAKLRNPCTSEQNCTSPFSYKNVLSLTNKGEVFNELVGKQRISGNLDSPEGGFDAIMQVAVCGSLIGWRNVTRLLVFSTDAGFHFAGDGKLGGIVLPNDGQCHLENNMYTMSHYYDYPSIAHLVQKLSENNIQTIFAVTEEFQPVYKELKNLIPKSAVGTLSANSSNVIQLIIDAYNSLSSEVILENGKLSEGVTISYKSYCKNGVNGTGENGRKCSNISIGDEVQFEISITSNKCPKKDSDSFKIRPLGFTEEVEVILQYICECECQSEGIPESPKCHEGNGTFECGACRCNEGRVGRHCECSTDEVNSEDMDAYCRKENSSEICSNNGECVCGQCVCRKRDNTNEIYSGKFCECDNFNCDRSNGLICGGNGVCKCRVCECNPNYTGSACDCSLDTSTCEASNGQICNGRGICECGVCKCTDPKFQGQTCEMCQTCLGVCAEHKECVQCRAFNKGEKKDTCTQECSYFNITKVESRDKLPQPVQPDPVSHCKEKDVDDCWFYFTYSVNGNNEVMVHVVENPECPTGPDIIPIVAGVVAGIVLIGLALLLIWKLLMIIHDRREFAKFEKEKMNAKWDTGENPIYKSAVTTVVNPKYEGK"}, "source": "paper PMC3869950", "binders": {"B1": {"name": "N-terminal 6×His-tagged anosmin-1 (protein, UniProt P23352 25-680)", "chain": "AGPGAAAARRLDESLSAGSVQRARCASRCLSLQITRISAFFQHFQNNGSLVWCQNHKQCSKCLEPCKESGDLRKHQCQSFCEPLFPKKSYECLTSCEFLKYILLVKQGDCPAPEKASGFAAACVESCEVDNECSGVKKCCSNGCGHTCQVPKTLYKGVPLKPRKELRFTELQSGQLEVKWSSKFNISIEPVIYVVQRRWNYGIHPSEDDATHWQTVAQTTDERVQLTDIRPSRWYQFRVAAVNVHGTRGFTAPSKHFRSSKDPSAPPAPANLRLANSTVNSDGSVTVTIVWDLPEEPDIPVHHYKVFWSWMVSSKSLVPTKKKRRKTTDGFQNSVILEKLQPDCDYVVELQAITYWGQTRLKSAKVSLHFTSTHATNNKEQLVKTRKGGIQTQLPFQRRRPTRPLEVGAPFYQDGQLQVKVYWKKTEDPTVNRYHVRWFPEACAHNRTTGSEASSGMTHENYIILQDLSFSCKYKVTVQPIRPKSHSKAEAVFFTTPPCSALKGKSHKPVGCLGEAGHVLSKVLAKPENLSASFIVQDVNITGHFSWKMAKANLYQPMTGFQVTWAEVTTESRQNSLPNSIISQSQILPSDHYVLTVPNLRPSTLYRLEVQVLTPGGEGPATIKTFRTPELPPSSAHRSHLKHRHPHHYKPSPERY"}, "B2": {"name": "C-terminal GFP-tagged anosmin-1 (protein, UniProt P23352 25-680)", "chain": "B1 chain"}}, "target": "β1 integrin (human (endogenous in LN229)) (UniProt P05556)", "experiment": "co-IP; total LN229 cell lysates (Triton lysis buffer with protease/phosphatase inhibitors) precipitated with anti-β1 integrin or nonspecific IgG; blots probed with anti-His, anti-GFP or anti-β1", "note": "These are yes or no findings as the source states them, for the method shown. In cells and extracts the contact can be indirect. Some binding calls cover weakened binding; strength is not graded here. Where a sequence is shown, tags or fusion partners need not be part of it."}
{"binder": "B1", "values": [{"measurement": "binding", "value": "binds"}]}
{"binder": "B2", "values": [{"measurement": "binding", "value": "binds"}]}
